# Measured values: US7939098B2, “Compositions and method for transmucosal drug delivery and cryoprotection” (Femina Pharma Incorporated, priority 2002, dated 2011)
# How the values were obtained:
# [1] = female, New Zealand white, rabbit, in vivo
# [2] = system: healthy female rabbits; details: rabbit, in vivo
# Protocol: A 10 day, repeat dose, vaginal toxicity study was conducted in healthy female rabbits. Three doses and two controls were used. […] Doses of SUPPOCIRE® and SUPPOCIRE® plus ethoxydiglycol were used as controls. The study findings are summarized below.
# [3] = in vivo; details: female, New Zealand white, rabbit
structure (smiles),measurement,setting,value
NCCCC(O)(P(=O)(O)O)P(=O)(O)O [alendronate],share of the oral dose sufficient for vaginal administration to reach equivalent plasma concentrations,[1],approximately 7 % of the oral dose
same,one-time vaginal dose in humans supported by toxicology results,[2],≤ 3 mg
same,AUC,[3]; 0.14 mg/kg,180 ± 82.4 ng·h/mL
same,Cmax,[3]; 0.14 mg/kg,34 ± 14.4 ng/mL
same,Tmax,[3]; 0.14 mg/kg,~0.5 h
same,AUC,"[3]; iv, 0.15 mg/kg",653 ng·h/mL
same,AUC,"[3]; po, 0.22 mg/kg",18.2 ± 12.1 ng·h/mL
same,Cmax,"[3]; po, 0.22 mg/kg",1.8 ± 1.2 ng/mL
same,Tmax,"[3]; po, 0.22 mg/kg",4.8 ± 2 h
